# Experimental data taken from the supplement of paper PMC8728848.
# Some of the results follow.
# B1: SRS6 (Toxoplasma gondii), Q9NH12 (protein)
# chain: MARTGSMQQRRGGFQTTARMLMAVCVSGVLLLSSGPSSANKLTEGQQNQNSGPGAATQEGPTIEGAVAKCVLKTTAAENGSSRAKNTTGLTLSKENLVVSLQCSGEKNAIVPKDQKKVCSAAPNAKVADCKGADTDKQVTLKSLLGTSGDIQWEKTIVSTDNKGEVMTLKIKESELPLFDKAFFVGCEEDKAQTRTSQATECKVNVSVKARPSTVGENNVVTCAYGKDSNPRPLEVEMSADNDTLTIDCGTDGSLKPTKYTEEFCVTDNSQLESCTTKKFSEILPTFLPSWWVSDSQNGSAKLTIPESGFPEEQQQFRLGCVPKKTTQSPQANPSVKTEKEEGAQNTDASTSNCSVIVTVKASNFSSLASSIAPTAAVAGGAAALTGFLVGSF
# What was measured:
# Experiment in all cases: glycan array binding signal (z-score within array); higher = stronger binding
# Conditions in all cases: glycan notation: IUPAC condensed, linker removed
# [1] = molecular target: Neu5Ac(a2-3)Gal(b1-3)GlcNAc(b1-3)Gal(b1-3)GlcNAc
# Method in brief: (§1)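 Glycan array data came from 3228 arrays in the Consortium for Functional Glycomics database, and only arrays with an available protein sequence were kept. Glycan names were put into IUPAC-condensed notation, and columns mapping to the same glycan were averaged. The binding signal is a within-array Z-score, averaged across arrays of one protein sequence run at different concentrations or buffers and across linkers. A negative Z-score can be read as non-binding.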
# [2] = molecular target: Neu5Ac(a2-3)Gal(b1-3)GlcNAc(b1-3)Gal(b1-4)GlcNAc
# Method in brief: as §1
# [3] = molecular target: Neu5Ac(a2-3)Gal(b1-3)GlcNAc(b1-3)GalNAc
# Method in brief: as §1
# [4] = molecular target: Neu5Ac(a2-3)Gal(b1-3)GlcNAc6S
# Method in brief: as §1
# [5] = molecular target: Neu5Ac(a2-3)Gal(b1-3)[Fuc(a1-4)]GlcNAc
# Method in brief: as §1
# [6] = molecular target: Neu5Ac(a2-3)Gal(b1-3)[Fuc(a1-4)]GlcNAc(b1-3)Gal(b1-3)[Fuc(a1-4)]GlcNAc
# Method in brief: as §1
# [7] = molecular target: Neu5Ac(a2-3)Gal(b1-3)[Fuc(a1-4)]GlcNAc(b1-3)Gal(b1-4)[Fuc(a1-3)]GlcNAc
# Method in brief: as §1
# [8] = molecular target: Neu5Ac(a2-3)Gal(b1-3)[Neu5Ac(a2-3)Gal(b1-4)]GlcNAc
# Method in brief: as §1
# [9] = molecular target: Neu5Ac(a2-3)Gal(b1-3)[Neu5Ac(a2-6)]GalNAc
# Method in brief: as §1
# Neu5Ac(a2-3)Gal(b1-4)Glc = molecular target: Neu5Ac(a2-3)Gal(b1-4)Glc
# Method in brief: as §1
# [10] = molecular target: Neu5Ac(a2-3)Gal(b1-4)GlcNAc
# Method in brief: as §1
# [11] = molecular target: Neu5Ac(a2-3)Gal(b1-4)GlcNAc(b1-2)Man(a1-3)[GlcNAc(b1-2)Man(b1-4)GlcNAc(b1-2)Man(a1-6)]Man(b1-4)GlcNAc(b1-4)GlcNAc
# Method in brief: as §1
# [12] = molecular target: Neu5Ac(a2-3)Gal(b1-4)GlcNAc(b1-2)Man(a1-3)[Neu5Ac(a2-6)Gal(b1-4)GlcNAc(b1-2)Man(a1-6)]Man(b1-4)GlcNAc(b1-4)GlcNAc
# Method in brief: as §1
# [13] = molecular target: Neu5Ac(a2-3)Gal(b1-4)GlcNAc(b1-3)Gal(b1-3)GlcNAc
# Method in brief: as §1
# [14] = molecular target: Neu5Ac(a2-3)Gal(b1-4)GlcNAc(b1-3)Gal(b1-4)GlcNAc
# Method in brief: as §1
# [15] = molecular target: Neu5Ac(a2-3)Gal(b1-4)GlcNAc(b1-3)Gal(b1-4)GlcNAc(b1-3)Gal(b1-4)GlcNAc
# Method in brief: as §1
# [16] = molecular target: Neu5Ac(a2-3)Gal(b1-4)GlcNAc(b1-3)Gal(b1-4)[Fuc(a1-3)]GlcNAc
# Method in brief: as §1
# [17] = molecular target: Neu5Ac(a2-3)Gal(b1-4)GlcNAc(b1-3)GalNAc
# Method in brief: as §1
# [18] = molecular target: Neu5Ac(a2-3)Gal(b1-4)GlcNAc(b1-6)[Gal(b1-3)]GalNAc
# Method in brief: as §1
# [19] = molecular target: Neu5Ac(a2-3)Gal(b1-4)GlcNAc(b1-6)[Neu5Ac(a2-3)Gal(b1-3)]GalNAc
# Method in brief: as §1
# [20] = molecular target: Neu5Ac(a2-3)Gal(b1-4)GlcNAc6S
# Method in brief: as §1
# [21] = molecular target: Neu5Ac(a2-3)Gal(b1-4)[Fuc(a1-3)]GlcNAc
# Method in brief: as §1
# [22] = molecular target: Neu5Ac(a2-3)Gal(b1-4)[Fuc(a1-3)]GlcNAc(b1-3)Gal
# Method in brief: as §1
# [23] = molecular target: Neu5Ac(a2-3)Gal(b1-4)[Fuc(a1-3)]GlcNAc(b1-3)Gal(b1-4)GlcNAc
# Method in brief: as §1
# [24] = molecular target: Neu5Ac(a2-3)Gal(b1-4)[Fuc(a1-3)]GlcNAc(b1-3)Gal(b1-4)[Fuc(a1-3)]GlcNAc(b1-3)Gal(b1-4)[Fuc(a1-3)]GlcNAc
# Method in brief: as §1
# [25] = molecular target: Neu5Ac(a2-3)Gal(b1-4)[Fuc(a1-3)]GlcNAc(b1-3)GalNAc
# Method in brief: as §1
# [26] = molecular target: Neu5Ac(a2-3)Gal(b1-4)[Fuc(a1-3)]GlcNAc(b1-6)[Gal(b1-3)]GalNAc
# Method in brief: as §1
# [27] = molecular target: Neu5Ac(a2-3)Gal(b1-4)[Fuc(a1-3)]GlcNAc(b1-6)[Neu5Ac(a2-3)Gal(b1-3)]GalNAc
# Method in brief: as §1
# [28] = molecular target: Neu5Ac(a2-3)Gal(b1-4)[Fuc(a1-3)]GlcNAc6S
# Method in brief: as §1
# [29] = molecular target: Neu5Ac(a2-3)Gal6S(b1-4)GlcNAc
# Method in brief: as §1
# [30] = molecular target: Neu5Ac(a2-3)Gal6S(b1-4)[Fuc(a1-3)]GlcNAc
# Method in brief: as §1
# Neu5Ac(a2-3)GalNAc = molecular target: Neu5Ac(a2-3)GalNAc
# Method in brief: as §1
# [31] = molecular target: Neu5Ac(a2-3)GalNAc(b1-4)GlcNAc
# Method in brief: as §1
# [32] = molecular target: Neu5Ac(a2-3)[GalNAc(b1-4)]Gal(b1-4)Glc
# Method in brief: as §1
# [33] = molecular target: Neu5Ac(a2-3)[GalNAc(b1-4)]Gal(b1-4)GlcNAc
# Method in brief: as §1
# [34] = molecular target: Neu5Ac(a2-3)[GalNAc(b1-4)]Gal(b1-4)GlcNAc(b1-3)GalNAc
# Method in brief: as §1
# [35] = molecular target: Neu5Ac(a2-3)[Neu5Ac(a2-6)]GalNAc
# Method in brief: as §1
# Neu5Ac(a2-6)Gal = molecular target: Neu5Ac(a2-6)Gal
# Method in brief: as §1
# Neu5Ac(a2-6)Gal(b1-4)Glc = molecular target: Neu5Ac(a2-6)Gal(b1-4)Glc
# Method in brief: as §1
# [36] = molecular target: Neu5Ac(a2-6)Gal(b1-4)GlcNAc
# Method in brief: as §1
binder,measurement,setting,value
B1,glycan array binding signal (z-score),[1],0.353
same,glycan array binding signal (z-score),[2],-0.41
same,glycan array binding signal (z-score),[3],1.46
same,glycan array binding signal (z-score),[4],0.818
same,glycan array binding signal (z-score),[5],-0.244
same,glycan array binding signal (z-score),[6],1.32
same,glycan array binding signal (z-score),[7],-0.083
same,glycan array binding signal (z-score),[8],-1.11
same,glycan array binding signal (z-score),[9],-0.198
same,glycan array binding signal (z-score),Neu5Ac(a2-3)Gal(b1-4)Glc,-0.824
same,glycan array binding signal (z-score),[10],-0.934
same,glycan array binding signal (z-score),[11],0.985
same,glycan array binding signal (z-score),[12],-0.635
same,glycan array binding signal (z-score),[13],-0.529
same,glycan array binding signal (z-score),[14],2.13
same,glycan array binding signal (z-score),[15],0.084
same,glycan array binding signal (z-score),[16],-0.259
same,glycan array binding signal (z-score),[17],-0.207
same,glycan array binding signal (z-score),[18],0.035
same,glycan array binding signal (z-score),[19],-1.12
same,glycan array binding signal (z-score),[20],0.75
same,glycan array binding signal (z-score),[21],-0.808
same,glycan array binding signal (z-score),[22],-0.979
same,glycan array binding signal (z-score),[23],1.16
same,glycan array binding signal (z-score),[24],-0.225
same,glycan array binding signal (z-score),[25],0.946
same,glycan array binding signal (z-score),[26],-0.157
same,glycan array binding signal (z-score),[27],0.381
same,glycan array binding signal (z-score),[28],0.07
same,glycan array binding signal (z-score),[29],0.781
same,glycan array binding signal (z-score),[30],0.557
same,glycan array binding signal (z-score),Neu5Ac(a2-3)GalNAc,-0.337
same,glycan array binding signal (z-score),[31],-0.177
same,glycan array binding signal (z-score),[32],-0.162
same,glycan array binding signal (z-score),[33],-0.041
same,glycan array binding signal (z-score),[34],-1.14
same,glycan array binding signal (z-score),[35],0.265
same,glycan array binding signal (z-score),Neu5Ac(a2-6)Gal,0.288
same,glycan array binding signal (z-score),Neu5Ac(a2-6)Gal(b1-4)Glc,0.098
same,glycan array binding signal (z-score),[36],-0.11

# Two entries from above, bar-delimited.
binder | measurement | setting | value
B1 | glycan array binding signal (z-score) | [6] | 1.32
same | glycan array binding signal (z-score) | [7] | -0.083
